PubChem BioAssay AID652243 | Drosophila RNAi Screening Center | 2013
In all, the deposit lists about 24,000 reagents; below is a random part of those with a known target gene and a result. Over the whole deposit, 246 (1%) got an active call. 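Plates not normalised; calls are printed but the firefly/Renilla ratio behind them is not deposited; fold cut for lowering reported inconsistently.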 Raw values vary from plate to plate and are shown uncorrected. Reagents against one gene are numbered here. Not given: the amount of reagent.

Screen: 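Fly regulators of androgen-dependent reporter output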 (primary screen)
System: Drosophila S2R+ cells
Reagent: long dsRNA against Drosophila genes
Duration: 72 h (48 h, then 24 h hormone)
Conditions: synthetic androgen R1881 at 10 nM for 24 h
Measurement: 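Firefly light from an androgen-responsive reporter and Renilla control light per well, raw and unnormalised, for each of two replicates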
Scale: firefly reporter light: higher = more light from androgen-responsive reporter; Renilla control light: higher = more constitutive control signal (cell number, transfection)
Active means: 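Hit when the log firefly-to-Renilla ratio dropped or increased by a fixed fold versus the mean of GFP or LacZ controls across duplicate plates; lowering cut given as 1.5 and as 3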
Meaning of the calls: active = hit: reporter lowered or raised; inactive = no hit

Silencing of Spase25 (GeneID 32095) gave: firefly reporter light, replicate 1 = 1.27e5; firefly reporter light, replicate 2 = 1.66e5; Renilla control light, replicate 1 = 7.01e5; Renilla control light, replicate 2 = 8.27e5; inactive.
With knock-down of Ppt1 (GeneID 31805) the results were firefly reporter light, replicate 1 = 2.07e5; firefly reporter light, replicate 2 = 3.57e5; Renilla control light, replicate 1 = 1.96e6; Renilla control light, replicate 2 = 3.18e6; inactive.
Knock-down of Mst84Db (GeneID 40888) #1 came out at: firefly reporter light, replicate 1 = 1.35e5; firefly reporter light, replicate 2 = 1.21e5; Renilla control light, replicate 1 = 2.07e6; Renilla control light, replicate 2 = 1.39e6; inactive.
Mst84Db (GeneID 40888) #2 gave firefly reporter light, replicate 1 = 91515; firefly reporter light, replicate 2 = 1.17e5; Renilla control light, replicate 1 = 2.40e6; Renilla control light, replicate 2 = 2.31e6; inactive.
After knock-down of Mst84Db (GeneID 40888) #3 the results were firefly reporter light, replicate 1 = 6.40e5; firefly reporter light, replicate 2 = 5.62e5; Renilla control light, replicate 1 = 1.34e6; Renilla control light, replicate 2 = 1.47e6; inactive.
After knock-down of CG31974 (GeneID 33174), the screen gave firefly reporter light, replicate 1 = 88479; firefly reporter light, replicate 2 = 92148; Renilla control light, replicate 1 = 5.54e5; Renilla control light, replicate 2 = 4.61e5; inactive.
Phae1 (GeneID 34637) showed firefly reporter light, replicate 1 = 2.66e5; firefly reporter light, replicate 2 = 4.05e5; Renilla control light, replicate 1 = 1.97e6; Renilla control light, replicate 2 = 2.80e6; inactive.
After knock-down of Lk (GeneID 47746), the screen gave firefly reporter light, replicate 1 = 2.38e5; firefly reporter light, replicate 2 = 2.06e5; Renilla control light, replicate 1 = 3.02e6; Renilla control light, replicate 2 = 2.43e6; inactive.
For CG13339 (GeneID 36528) the deposit lists firefly reporter light, replicate 1 = 98299; firefly reporter light, replicate 2 = 74168; Renilla control light, replicate 1 = 1.30e6; Renilla control light, replicate 2 = 1.30e6; inactive.
CG11454 (GeneID 33175) #1 gave firefly reporter light, replicate 1 = 8.17e5; firefly reporter light, replicate 2 = 8.04e5; Renilla control light, replicate 1 = 3.79e6; Renilla control light, replicate 2 = 1.56e6; inactive.
After knock-down of CG11454 (GeneID 33175) #2 the results were firefly reporter light, replicate 1 = 7.94e5; firefly reporter light, replicate 2 = 6.95e5; Renilla control light, replicate 1 = 1.02e6; Renilla control light, replicate 2 = 8.17e5; inactive.
Rnb (GeneID 43513) #1 gave firefly reporter light, replicate 1 = 57606; firefly reporter light, replicate 2 = 59381; Renilla control light, replicate 1 = 6.02e5; Renilla control light, replicate 2 = 4.35e5; inactive.
For Rnb (GeneID 43513) #2, the values are firefly reporter light, replicate 1 = 7.42e5; firefly reporter light, replicate 2 = 4.31e5; Renilla control light, replicate 1 = 1.41e6; Renilla control light, replicate 2 = 9.77e5; inactive.
Septin2 (GeneID 42438) scored firefly reporter light, replicate 1 = 59385; firefly reporter light, replicate 2 = 54757; Renilla control light, replicate 1 = 4.71e5; Renilla control light, replicate 2 = 6.06e5; inactive.

Not a retest: 2 of the entries above.
CG11454 (GeneID 33175) #2 — firefly reporter light, replicate 1 = 7.94e5; firefly reporter light, replicate 2 = 6.95e5; Renilla control light, replicate 1 = 1.02e6; Renilla control light, replicate 2 = 8.17e5; activity call = inactive
Rnb (GeneID 43513) #1 — firefly reporter light, replicate 1 = 57606; firefly reporter light, replicate 2 = 59381; Renilla control light, replicate 1 = 6.02e5; Renilla control light, replicate 2 = 4.35e5; activity call = inactive
